Results: article PMC7819943, “Rice protein-binding microarrays: a tool to detect cis-acting elements near promoter regions in rice”
This is one part of the list.

Chains of the proteins cited; added tags and fusions are not shown.
UniProt Q0JBA9, entry or part of it: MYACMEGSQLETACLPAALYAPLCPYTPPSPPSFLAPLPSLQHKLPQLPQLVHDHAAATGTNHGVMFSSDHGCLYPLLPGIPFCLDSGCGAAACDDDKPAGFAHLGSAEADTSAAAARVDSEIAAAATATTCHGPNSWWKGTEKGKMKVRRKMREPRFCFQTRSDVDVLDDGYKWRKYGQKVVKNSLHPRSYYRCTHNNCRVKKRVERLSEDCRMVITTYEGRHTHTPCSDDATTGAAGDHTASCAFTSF

Biological target: OsWRKY34 (Oryza sativa, UniProt Q0JBA9 1-250)
Assay: protein-binding microarray (RPBM); PBS, 2% BSA, 51.3 ng/ul salmon testes DNA, 50 uM zinc acetate, 200 nM TF, 25 C, 1 h; high values mean tight binding
Details: protein: recombinant; tags: N-terminal polyhistidine and DsRed monomer fusion (pET32a); label: CyDye5-dUTP incorporated in the synthesized complementary strand; 3' TTTTT single-stranded linker to array surface; dsDNA, one strand shown
Procedure, shortened: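 The binding signal is fluorescence intensity per array feature (arbitrary units). Readings came from an Axon 4000B scanner after a washed, 2% BSA-blocked, double-stranded custom Agilent array had been incubated for 1 h at 25 °C with 200 nM protein and 50 µM zinc acetate. The protein was a Ni–NTA-purified transcription factor fused N-terminally to polyhistidine and DsRed, expressed in E. coli BL21-CodonPlus.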

| Sequence | binding signal |
| --- | --- |
| GTAGTGGCTCTGTGCTCGCTAGCTTCGTCATCTACCACTGCGGAGTCACCTAGTGCAG | 10900 fluorescence intensity (a.u.) |
| GCAGCGCTGTCGTTCGTTGCACCACCACCACCACCTCCACCGGAGTCACCTAGTGCAG | 8380 fluorescence intensity (a.u.) |
| ATAAGCTATCATGTCTTCGGGCTGACACGACCCAAATCTTCGGAGTCACCTAGTGCAG | 8240 fluorescence intensity (a.u.) |
| TCGTCATCAAGACCTTCCTATTGATGCCATCACCGCGTCCCGGAGTCACCTAGTGCAG | 8720 fluorescence intensity (a.u.) |
| GTCCGGCGGCTGCCCAACAGAATCCACCATGGTTTCTCCACGGAGTCACCTAGTGCAG | 8150 fluorescence intensity (a.u.) |
| TACCCGCCCCTATCACCCCGCGCCTCGGCCTCGCTCGCTTCGGAGTCACCTAGTGCAG | 8300 fluorescence intensity (a.u.) |
| CCAAAAGCTCCAAGCTCCAGTTTTTACACCATTTCGTTTTCGGAGTCACCTAGTGCAG | 8920 fluorescence intensity (a.u.) |
| ATTTCCACCTCACCCAACCCTGCCACGTCAATCTATCATACGGAGTCACCTAGTGCAG | 10100 fluorescence intensity (a.u.) |
| AACATGCGTACTCTGATTCTTCCTACTACGAGAACATTGACGGAGTCACCTAGTGCAG | 10400 fluorescence intensity (a.u.) |
| GTTTTACACTTATATTCCTATTAAAATTTTCCGTTTTTCTCGGAGTCACCTAGTGCAG | 8490 fluorescence intensity (a.u.) |
| GTTGTATTACTCTCTCATTAATTCACCATCGTTGTTTCTTCGGAGTCACCTAGTGCAG | 9960 fluorescence intensity (a.u.) |
| GCTTGGTTTGCTTCCGGTTTCCGATTAGGTTATTACTGTTCGGAGTCACCTAGTGCAG | 9450 fluorescence intensity (a.u.) |
| GGCCCAACTGCTCCTTCTACTGACTCTCACGCACTAATTACGGAGTCACCTAGTGCAG | 13500 fluorescence intensity (a.u.) |
| GGTCTCATGTCCAGCTGTTTGAATTTTGTACCTGAAATATCGGAGTCACCTAGTGCAG | 10700 fluorescence intensity (a.u.) |
| ATGAGTCGTTGTGCCATTGGTCGGAGCTTGTCCTTTATTTCGGAGTCACCTAGTGCAG | 14700 fluorescence intensity (a.u.) |
| GTGCTTCATCCTAGCCTACGTTGCTGTTCCCGCTCGCCACCGGAGTCACCTAGTGCAG | 8310 fluorescence intensity (a.u.) |
| CGTCTCTCGTTCTCTCCTCTCGTTTTCTCCGCTCTCTACTCGGAGTCACCTAGTGCAG | 10200 fluorescence intensity (a.u.) |
| GCTTGTTTCTTTGCTGAATTATTATTTTGCTCATTCCACTCGGAGTCACCTAGTGCAG | 10300 fluorescence intensity (a.u.) |
| TTTAAAAAAGTCAACGACGGCAAATATTTAGGGAAGGAGGCGGAGTCACCTAGTGCAG | 9890 fluorescence intensity (a.u.) |
| AACTTTTTGATATACGCTCGATCATTCATCTTATTGAATACGGAGTCACCTAGTGCAG | 8030 fluorescence intensity (a.u.) |
| CCCTGCTTCGTCACCACCGATGCCGTTTCTTTGGTCTCATCGGAGTCACCTAGTGCAG | 8110 fluorescence intensity (a.u.) |

Nothing new here: an excerpt of the list.

| Sequence | binding signal |
| --- | --- |
| TTTAAAAAAGTCAACGACGGCAAATATTTAGGGAAGGAGGCGGAGTCACCTAGTGCAG | 9890 fluorescence intensity (a.u.) |
| AACTTTTTGATATACGCTCGATCATTCATCTTATTGAATACGGAGTCACCTAGTGCAG | 8030 fluorescence intensity (a.u.) |

Next entries follow:

| Sequence | binding signal |
| --- | --- |
| ATATACACAACAATATTATCCCATCCATTTACAAGTATACCGGAGTCACCTAGTGCAG | 8630 fluorescence intensity (a.u.) |
| GCTGCGGACGACGGATCTCTGTTTTTTTTTGTCCGCTGTACGGAGTCACCTAGTGCAG | 9370 fluorescence intensity (a.u.) |
| AGTCGCCCATGCCATTCTTGAAATCTTCATATAGTCAATTCGGAGTCACCTAGTGCAG | 9420 fluorescence intensity (a.u.) |
| ACGACGAGGAGGCGGTGGTGGTCGTGCGCGGGGAGGAGTCCGGAGTCACCTAGTGCAG | 9310 fluorescence intensity (a.u.) |
| CACCTCGGCGTCGGTTTCTTCACTCTCCACCCATCCCCAGCGGAGTCACCTAGTGCAG | 9390 fluorescence intensity (a.u.) |
| CAGCAGATTGCCCATCTCTCGTTGTACTGCCAATCTCTCCCGGAGTCACCTAGTGCAG | 9530 fluorescence intensity (a.u.) |
| ACTCACCTCTCTCATCTTTCGTGCACACATTTTTCAATTTCGGAGTCACCTAGTGCAG | 17700 fluorescence intensity (a.u.) |
| AATACTAAACTAATCTCGTTCTAATTGTTTGCTTAGTTTTCGGAGTCACCTAGTGCAG | 8350 fluorescence intensity (a.u.) |
| TATTTTGTTGTGTTGCTAGTTTTCCTTCTTGTAGTGTAATCGGAGTCACCTAGTGCAG | 11100 fluorescence intensity (a.u.) |
| AATGGTCAAATATGTAAGAAAAAGTCAACGGCGTCATCTACGGAGTCACCTAGTGCAG | 12700 fluorescence intensity (a.u.) |
| CTGCTGTGTTGCACATTTTTCTGCTCTGTATACCTATAATCGGAGTCACCTAGTGCAG | 12200 fluorescence intensity (a.u.) |
| CGCATTGATCTCAACTAGCTCGCCGGCGTCCCTTCGTCCTCGGAGTCACCTAGTGCAG | 8420 fluorescence intensity (a.u.) |
| TGTATCTCAAATTCTTTCAGTTGGTTTTGTGCTCTTTTTACGGAGTCACCTAGTGCAG | 8920 fluorescence intensity (a.u.) |
| TCCAGGGTTGTAATCTTGTAATTTTTTTCCTACTCTATCACGGAGTCACCTAGTGCAG | 8770 fluorescence intensity (a.u.) |
| CGGTAACGTTTGTTATATCCTGTTGTTTCTATCCATCTCACGGAGTCACCTAGTGCAG | 9920 fluorescence intensity (a.u.) |
| CGTTTTAAGCTTTCCATCGAGAAAAAAAAATGCGTTGACCCGGAGTCACCTAGTGCAG | 11000 fluorescence intensity (a.u.) |
| TTTCTGACATGTCACTTGTTTATGTATTAGTTGCATTGTACGGAGTCACCTAGTGCAG | 9520 fluorescence intensity (a.u.) |
| GGTAGATCTCCACGTTCCTTTTTTTTCCGTAATCCAAGATCGGAGTCACCTAGTGCAG | 10400 fluorescence intensity (a.u.) |
| GCTTTGCCCATTGCCGCTCCGCCCGCAACCCGCTGCCACGCGGAGTCACCTAGTGCAG | 9310 fluorescence intensity (a.u.) |
| AGTATGTATTAATTAAGCAAACACTCTAGCTTATTTTCTACGGAGTCACCTAGTGCAG | 8030 fluorescence intensity (a.u.) |
| TTAGTTCACCCATCTTGCCAATGCTGTCATCGCCACAGCTCGGAGTCACCTAGTGCAG | 8550 fluorescence intensity (a.u.) |
